Data taken from ChEMBL document CHEMBL3988442, “University of Dundee, Small-Polar-MMV Screening Library” (2021).

Mtb growth Cornell: 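Whole-cell assay for inhibitors of Mycobacterium tuberculosis growth, labelled Cornell in the record; the read-out is not stated. The concentration is filed as 10 mM, unlikely as a test dose, so the dose is not known. Higher means stronger inhibition (inferred from two other growth screens of the library). Size under these conditions: about 53,000 compounds, about 900 of them at 50% or above in at least one test.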
Mtb heat-shock: 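Assay on Mycobacterium tuberculosis, filed only as a heat shock assay from Cornell; the read-out is not stated. The concentration is filed as 10 mM, unlikely as a test dose, so the dose is not known. The record gives no direction; compounds that gave an IC50 in retests scored well above the rest, so higher reads as stronger inhibition. About 69,000 compounds were tested under these conditions; 1.4% (about 930) showed 50% or more at least once.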

Results are given as percent effect. How 0% and 100% were set is not recorded. Most values in the screen are low, and negative values occur. This is an unselected part of the compounds tested.

- CN1C[C@@H](C(=O)NC(C)(C)C)[C@@]2(CCc3ccccc3C(=O)N2)C1 | Mtb growth Cornell: 13.55%; Mtb heat-shock: 0.824%
- O=C1COc2ccc(C(=O)NS(=O)(=O)c3ccccc3F)cc2N1 | Mtb growth Cornell: -53.36%; Mtb heat-shock: -3.093%
- Cc1nc(N(C)C)cc(C2(C)CCNCC2)n1 | Mtb growth Cornell: 3.518%; Mtb heat-shock: 13.81%
- [H][C@]12C[C@H](C(=O)NC)N(C(C)C)[C@@]1([H])CN(c1cc(OC)ncn1)C2 | Mtb growth Cornell: -14.82%; Mtb heat-shock: -33.39%
- O=C(O)C(F)(F)F.c1cnc(N2CCC3(CCN(CC4CCOC4)C3)CC2)nc1 (configuration not stated) | Mtb growth Cornell: 5.886%; Mtb heat-shock: 8.832%
- CC(=O)Nc1nc(CN2CCn3c(C)nnc3C2)cs1 | Mtb growth Cornell: -12.41%; Mtb heat-shock: -31.44%
- Cc1ccc2cc(C3(O)CCN(C(=O)CSC(C)C)CC3)ccc2n1 | Mtb growth Cornell: 16.97%; Mtb heat-shock: -1.702%
- c1ccc(C(NCc2nnc(-c3ccco3)o2)C2CCC2)cc1 (configuration not stated) | Mtb growth Cornell: 14.05%; Mtb heat-shock: 29.5%
- CN1CCN(Cc2ccccc2Cl)CC12CCC(=O)N(CC1CC1)CC2 (configuration not stated) | Mtb growth Cornell: 18.55%; Mtb heat-shock: -11.72%
- O=C(O)C(F)(F)F.O=C1CCC2(CCN(Cc3nccs3)CC2)N1Cc1ccccc1 | Mtb heat-shock: -2.117%
- CCc1nccn1C1CCCN(C(=O)c2cnc[nH]2)C1 (configuration not stated) | Mtb growth Cornell: 9.893%; Mtb heat-shock: 2.797%
- COc1ccc(C(=O)N2C[C@@H](O)[C@H](NCc3cnc(C)cn3)C2)cc1 | Mtb growth Cornell: -29.01%; Mtb heat-shock: 4.527%
- CCc1n[nH]c(C2CN(CCCOc3cccc(C)c3)CCO2)n1 (configuration not stated) | Mtb growth Cornell: 24.35%; Mtb heat-shock: -23.54%
- Cn1c(Cn2ccnc2)nnc1C1CCN(C(=O)c2ccccn2)CC1 | Mtb growth Cornell: 13.65%; Mtb heat-shock: -4.097%
- CCC(CO)NC(=O)c1ccc2ccc(N(C)CC3CC3)n2c1 (configuration not stated) | Mtb growth Cornell: 7.311%; Mtb heat-shock: 30.71%
- O=C(c1cc(C2CC2)on1)N1CCCC(n2cccn2)C1 (configuration not stated) | Mtb heat-shock: -2.581%
- COCCCN1C(=O)CC(N2CCN(c3ccc(F)cc3)CC2)C1=O (configuration not stated) | Mtb growth Cornell: 4.554%; Mtb heat-shock: -25.23%
- CC(=O)Nc1nc(COc2nc(C)no2)cs1 | Mtb growth Cornell: -32.95%; Mtb heat-shock: -18.5%
- O=C(c1ccc(Br)s1)N1CCN(Cc2ccc(OC(F)(F)F)cc2)CC1 | Mtb growth Cornell: 35.57%; Mtb heat-shock: 10.89%
- O=C(Nc1cnn(CCN2CCOCC2)c1)c1ccccc1Cl | Mtb heat-shock: -1.206%
- [H][C@]12CCCCN1CCC[C@H]2CNC(=O)Cn1ccc2c(C)cccc21 | Mtb growth Cornell: 22.26%; Mtb heat-shock: 13.96%
- Cn1cc(C(=O)Nc2cccc(CCN3CCCC3)c2)ccc1=O | Mtb growth Cornell: 1.097%; Mtb heat-shock: -5.648%
- O=C(O)C(F)(F)F.[H][C@]12CCN(c3ncc(C)cn3)[C@@]1([H])CC[C@H](COCC(=O)N(C)C)O2 | Mtb growth Cornell: 24.64%; Mtb heat-shock: -19.84%
- Cc1cc(C)cc(N(C)S(=O)(=O)c2cc(C(=O)O)cs2)c1 | Mtb growth Cornell: 44.45%; Mtb heat-shock: 2.287%
- CC1Cc2ccccc2N1Cc1occc1C(=O)O (configuration not stated) | Mtb growth Cornell: -3.286%; Mtb heat-shock: 5.31%
- CO[C@@H]1CO[C@@]2(CCCN(Cc3nc(C)cs3)C2)C1.O=C(O)C(F)(F)F | Mtb growth Cornell: 13.01%; Mtb heat-shock: 0.7459%
- CC(C)(C)n1nnnc1CN(Cc1ccccc1)Cc1ccc(Cl)cc1 | Mtb growth Cornell: 13.69%; Mtb heat-shock: 26.06%
- CN(Cc1cccnc1)CC1CCCN1c1cccnn1 (configuration not stated) | Mtb heat-shock: -10.43%
- CC1CCCN(Cc2ccc(OCc3nccn3C)cc2)C1 (configuration not stated) | Mtb growth Cornell: -28.25%; Mtb heat-shock: -19.4%
- O=C1COc2cc(C(=O)NS(=O)(=O)c3ccc(F)c(F)c3)ccc2N1 | Mtb growth Cornell: -19.76%; Mtb heat-shock: -17.58%
- Cc1nc(CN2CCc3ncnc(-c4cccnc4)c3CC2)cs1.O=C(O)C(F)(F)F.O=C(O)C(F)(F)F | Mtb heat-shock: -25.69%
- COc1ccccc1OC1CCN(C(=O)c2cnc(C)s2)CC1 | Mtb growth Cornell: 10.74%; Mtb heat-shock: -5.188%
- O=C(NC[C@H]1CCCC[C@H]1O)c1ccc2nc(-c3ccco3)[nH]c2c1 | Mtb growth Cornell: -3.055%; Mtb heat-shock: 45.31%
- CC(C)N(C)C(=O)C1CCN(Cc2cc3c(cc2O)CCC3)CC1 | Mtb growth Cornell: 22.89%; Mtb heat-shock: 23.84%
- [H][C@@]12C[C@@H](OCCOC)CN1CCN(C(=O)c1cnccn1)C2 | Mtb growth Cornell: 28.14%; Mtb heat-shock: 32.23%
- CC(NC(=O)NCCCN(C(C)C)S(C)(=O)=O)c1ccncc1 (configuration not stated) | Mtb growth Cornell: 14.58%; Mtb heat-shock: -10.11%
- CNS(=O)(=O)c1ccc(C(=O)N2CCCC2c2ccccc2)o1 (configuration not stated) | Mtb growth Cornell: 30.85%; Mtb heat-shock: 4.699%
- CNC(=O)[C@@H]1C[C@@H](NC(=O)c2ccc(OC)o2)CN1Cc1sccc1C | Mtb heat-shock: -12.02%
- CC(=O)c1ccc(C(=O)NCc2ccnc(N(C)C)n2)cc1 | Mtb heat-shock: 5.711%
- CCc1cc(NC2CCN(CC(N)=O)CC2)nc(N2CCCCC2)n1 | Mtb growth Cornell: -2.682%; Mtb heat-shock: -5.484%

The first 5 entries again:

For CN1C[C@@H](C(=O)NC(C)(C)C)[C@@]2(CCc3ccccc3C(=O)N2)C1 the result was Mtb growth Cornell: 13.55%; Mtb heat-shock: 0.824%.
For O=C1COc2ccc(C(=O)NS(=O)(=O)c3ccccc3F)cc2N1 the result was Mtb growth Cornell: -53.36%; Mtb heat-shock: -3.093%.
For Cc1nc(N(C)C)cc(C2(C)CCNCC2)n1 the result was Mtb growth Cornell: 3.518%; Mtb heat-shock: 13.81%.
For [H][C@]12C[C@H](C(=O)NC)N(C(C)C)[C@@]1([H])CN(c1cc(OC)ncn1)C2 the result was Mtb growth Cornell: -14.82%; Mtb heat-shock: -33.39%.
For O=C(O)C(F)(F)F.c1cnc(N2CCC3(CCN(CC4CCOC4)C3)CC2)nc1 (configuration not stated) the result was Mtb growth Cornell: 5.886%; Mtb heat-shock: 8.832%.